According to US9714247B2, “Multiple kinase pathway inhibitors” (Mannkind Corporation, priority 2012, dated 2017):
At least one compound was matched to its structure with a doubt left.

Tested on: DoHH2 cells
Details: treated 24 hours

CCN(CC)CCOc1ccc(Nc2cc3c(cn2)cc(C(C)C)c(=O)n3-c2ccccc2)nc1 [Compound 18, 7-[5-(2-Diethylamino-ethoxy)-pyridin-2-ylamino]-3-isopropyl-1-phenyl-1H-[1,6]naphthyridin-2-one]
Effect on Cell Cycle: G1 Arrest
